From paper PMC7967059 come the findings set out here.

Chains of the proteins cited; added tags and fusions are not shown. Lines headed by an entry give the natural chain unless they say otherwise; changes in a name come on top.
UniProt P43121: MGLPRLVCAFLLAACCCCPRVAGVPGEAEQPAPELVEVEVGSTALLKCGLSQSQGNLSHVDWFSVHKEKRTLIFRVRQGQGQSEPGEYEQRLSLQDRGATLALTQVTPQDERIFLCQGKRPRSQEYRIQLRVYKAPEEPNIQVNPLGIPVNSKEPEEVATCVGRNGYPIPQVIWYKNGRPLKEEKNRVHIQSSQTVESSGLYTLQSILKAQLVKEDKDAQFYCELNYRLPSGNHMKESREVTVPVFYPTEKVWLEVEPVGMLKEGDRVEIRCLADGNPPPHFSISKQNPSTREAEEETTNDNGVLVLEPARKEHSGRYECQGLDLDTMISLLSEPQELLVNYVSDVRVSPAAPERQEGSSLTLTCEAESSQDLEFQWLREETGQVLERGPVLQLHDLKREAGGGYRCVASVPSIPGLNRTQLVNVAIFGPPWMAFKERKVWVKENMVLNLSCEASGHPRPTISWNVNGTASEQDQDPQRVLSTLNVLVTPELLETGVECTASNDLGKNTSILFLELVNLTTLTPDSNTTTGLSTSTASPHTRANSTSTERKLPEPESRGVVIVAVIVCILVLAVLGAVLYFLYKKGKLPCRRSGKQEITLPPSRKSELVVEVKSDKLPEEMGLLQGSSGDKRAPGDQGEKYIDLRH

The target in assay [1] is T1, CD146, endogenous in mouse adipose tissue (mouse (endogenous in WAT and BAT)) (UniProt Q8R2Y2).
T1 sequence: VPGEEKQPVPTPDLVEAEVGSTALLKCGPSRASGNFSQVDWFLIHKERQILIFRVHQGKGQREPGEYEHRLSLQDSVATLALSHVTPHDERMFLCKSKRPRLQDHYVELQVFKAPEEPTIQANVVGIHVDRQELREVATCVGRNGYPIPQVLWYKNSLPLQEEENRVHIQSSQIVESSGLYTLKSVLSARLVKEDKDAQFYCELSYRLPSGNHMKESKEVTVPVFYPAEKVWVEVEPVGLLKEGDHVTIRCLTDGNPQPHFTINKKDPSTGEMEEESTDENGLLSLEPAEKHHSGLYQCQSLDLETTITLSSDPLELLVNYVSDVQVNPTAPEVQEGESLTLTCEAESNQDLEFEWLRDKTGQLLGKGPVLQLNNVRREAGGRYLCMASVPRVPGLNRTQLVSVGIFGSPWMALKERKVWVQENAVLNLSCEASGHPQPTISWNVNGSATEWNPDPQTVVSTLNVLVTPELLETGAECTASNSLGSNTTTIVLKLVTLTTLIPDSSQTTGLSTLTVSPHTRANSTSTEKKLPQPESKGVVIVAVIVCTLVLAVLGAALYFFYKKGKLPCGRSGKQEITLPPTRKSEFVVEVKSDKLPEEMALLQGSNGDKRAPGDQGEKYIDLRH
Put plainly: co-IP; epididymal adipose tissue (WAT) of mice fed ND or HFD (lean and obese), RIPA lysate; specific antibodies and protein G PLUS‐agarose overnight at 4 °C; wash with 1 M NaCl, 1% NP‐40; western blot.

Assay [2] has as its target T2, purified His‐tagged ANGPTL2 (UniProt Q9UKU9).
T2 sequence: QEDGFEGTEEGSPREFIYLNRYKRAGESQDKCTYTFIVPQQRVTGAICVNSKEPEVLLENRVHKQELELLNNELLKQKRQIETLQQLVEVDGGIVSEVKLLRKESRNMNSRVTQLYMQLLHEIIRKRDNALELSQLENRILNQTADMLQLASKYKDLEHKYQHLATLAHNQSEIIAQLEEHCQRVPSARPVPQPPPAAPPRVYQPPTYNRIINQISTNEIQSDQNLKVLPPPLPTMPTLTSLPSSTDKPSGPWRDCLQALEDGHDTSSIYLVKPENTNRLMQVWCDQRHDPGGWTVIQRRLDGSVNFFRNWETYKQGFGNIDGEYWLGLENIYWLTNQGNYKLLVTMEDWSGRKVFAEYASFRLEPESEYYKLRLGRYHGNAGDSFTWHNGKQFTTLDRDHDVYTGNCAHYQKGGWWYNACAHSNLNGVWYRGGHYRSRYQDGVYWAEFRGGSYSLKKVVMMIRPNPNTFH
Put plainly: pull-down; purified His‐ANGPTL2 and CD146 (200 ng mL^-1 each) in PBS, 1 h, 4 °C; precipitated with anti‐CD146 antibodies or anti‐His tag antibodies; western blot; both purified. On the technique in general: A western blot detects proteins with antibodies after separation by electrophoresis.

Assay [3] has as its target purified CD146 protein (UniProt P43121). Put plainly: pull-down; receptor blocking: anti‐CD146 AA1 or AA98 first incubated with CD146 (200 ng mL^-1) and protein G PLUS‐agarose beads, then with ANGPTL2 (200 ng mL^-1); western blot; both purified.
Assay [4] shares this target. Put plainly: pull-down; purified His‐ANGPTL2 and CD146 (200 ng mL^-1 each) in PBS, 1 h, 4 °C; precipitated with anti‐CD146 antibodies or anti‐His tag antibodies; western blot; both purified.
In assay [5] the target is CD146 containing only the 5th domain (ΔD1‐4), Flag‐tagged. The assay can be described thus: co-IP; HEK293 cells cotransfected with ANGPTL2 and full‐length or truncated Flag‐CD146; RIPA lysate; anti‐FLAG M2 agarose beads overnight at 4 °C; western blot.
Assay [6] addresses CD146 with deleted 1st domain (ΔD1), Flag‐tagged. Described as above.
Assay [7] addresses CD146 with deleted 1st domain to the 3rd domain (ΔD1‐3), Flag‐tagged. The assay is described as above.

No constants are given. Whether binding was seen depends on the method and setting. For some assays here: Binding can be weak; no strength is given. For some assays here: Where a sequence is shown, tags or fusion partners need not be part of it. For some assays here: Binding seen in cells or lysates may run through a third protein.

As for “ANGPTL4 (mouse (endogenous in WAT)) (ligand)”, the binding entry in assay [1] was “no binding”. With “ANGPTL3 (mouse (endogenous in WAT)) (ligand)”, in assay [1], the binding result is “no binding”. Regarding “purified CD146 protein (from UniProt P43121) (receptor)”, in assay [2], the binding result is listed as “binds”.

B1: purified His‐tagged ANGPTL2 (ligand, UniProt Q9UKU9 23-493)
chain: QEDGFEGTEEGSPREFIYLNRYKRAGESQDKCTYTFIVPQQRVTGAICVNSKEPEVLLENRVHKQELELLNNELLKQKRQIETLQQLVEVDGGIVSEVKLLRKESRNMNSRVTQLYMQLLHEIIRKRDNALELSQLENRILNQTADMLQLASKYKDLEHKYQHLATLAHNQSEIIAQLEEHCQRVPSARPVPQPPPAAPPRVYQPPTYNRIINQISTNEIQSDQNLKVLPPPLPTMPTLTSLPSSTDKPSGPWRDCLQALEDGHDTSSIYLVKPENTNRLMQVWCDQRHDPGGWTVIQRRLDGSVNFFRNWETYKQGFGNIDGEYWLGLENIYWLTNQGNYKLLVTMEDWSGRKVFAEYASFRLEPESEYYKLRLGRYHGNAGDSFTWHNGKQFTTLDRDHDVYTGNCAHYQKGGWWYNACAHSNLNGVWYRGGHYRSRYQDGVYWAEFRGGSYSLKKVVMMIRPNPNTFH
B1: the binding entry with purified CD146 protein [3] and in the assay with purified CD146 protein [4] was “binds” in each case.

B2: ANGPTL2 coexpressed in 293 cells (ligand, UniProt Q9UKU9 23-493)
chain: QEDGFEGTEEGSPREFIYLNRYKRAGESQDKCTYTFIVPQQRVTGAICVNSKEPEVLLENRVHKQELELLNNELLKQKRQIETLQQLVEVDGGIVSEVKLLRKESRNMNSRVTQLYMQLLHEIIRKRDNALELSQLENRILNQTADMLQLASKYKDLEHKYQHLATLAHNQSEIIAQLEEHCQRVPSARPVPQPPPAAPPRVYQPPTYNRIINQISTNEIQSDQNLKVLPPPLPTMPTLTSLPSSTDKPSGPWRDCLQALEDGHDTSSIYLVKPENTNRLMQVWCDQRHDPGGWTVIQRRLDGSVNFFRNWETYKQGFGNIDGEYWLGLENIYWLTNQGNYKLLVTMEDWSGRKVFAEYASFRLEPESEYYKLRLGRYHGNAGDSFTWHNGKQFTTLDRDHDVYTGNCAHYQKGGWWYNACAHSNLNGVWYRGGHYRSRYQDGVYWAEFRGGSYSLKKVVMMIRPNPNTFH
For the molecule B2, the binding result is “no binding” in assay [5], “binds” in assay [6] and “binds” in assay [7].
